Measurements as given in patent US20040063627A1 (BROWN UNIVERSITY RESEARCH FOUNDATION, published 2004).
Results are given in words; binding and its absence hold for the method and conditions named. Some entries that bind do so weakly or less than the wild type. Blank lines part the entries; values can stand above or below the molecule they belong to.

Chains of the proteins cited; added tags and fusions are not shown. Lines headed by an entry give the natural chain unless they say otherwise; changes in a name come on top. Residues count along the entry.
UniProt P21810: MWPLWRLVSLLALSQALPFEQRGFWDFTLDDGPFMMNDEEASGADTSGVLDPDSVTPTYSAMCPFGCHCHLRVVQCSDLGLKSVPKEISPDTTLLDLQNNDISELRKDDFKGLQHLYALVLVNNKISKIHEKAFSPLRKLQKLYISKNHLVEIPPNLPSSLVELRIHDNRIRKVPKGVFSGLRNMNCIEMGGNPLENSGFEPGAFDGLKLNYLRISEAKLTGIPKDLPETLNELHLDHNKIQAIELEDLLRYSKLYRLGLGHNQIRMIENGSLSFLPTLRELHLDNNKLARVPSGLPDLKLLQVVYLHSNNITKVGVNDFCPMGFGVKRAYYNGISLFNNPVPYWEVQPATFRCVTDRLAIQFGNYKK
UniProt P21793, residues 31-360: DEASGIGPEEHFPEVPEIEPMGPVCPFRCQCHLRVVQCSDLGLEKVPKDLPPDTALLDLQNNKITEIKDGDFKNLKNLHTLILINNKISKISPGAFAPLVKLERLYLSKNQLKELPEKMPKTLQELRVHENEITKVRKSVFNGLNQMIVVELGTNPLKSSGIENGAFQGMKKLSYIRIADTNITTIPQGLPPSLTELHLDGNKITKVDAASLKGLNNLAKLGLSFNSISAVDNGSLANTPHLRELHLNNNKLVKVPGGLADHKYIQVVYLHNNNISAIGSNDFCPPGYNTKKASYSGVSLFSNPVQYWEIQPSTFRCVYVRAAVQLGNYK

Key:
[1] = biological target: T1, α-dystroglycan (dystroglycan as named in the overlay assays; fragment not named at the place) (human) (UniProt Q14118); assay: assay not described at this place
T1 sequence (looked up): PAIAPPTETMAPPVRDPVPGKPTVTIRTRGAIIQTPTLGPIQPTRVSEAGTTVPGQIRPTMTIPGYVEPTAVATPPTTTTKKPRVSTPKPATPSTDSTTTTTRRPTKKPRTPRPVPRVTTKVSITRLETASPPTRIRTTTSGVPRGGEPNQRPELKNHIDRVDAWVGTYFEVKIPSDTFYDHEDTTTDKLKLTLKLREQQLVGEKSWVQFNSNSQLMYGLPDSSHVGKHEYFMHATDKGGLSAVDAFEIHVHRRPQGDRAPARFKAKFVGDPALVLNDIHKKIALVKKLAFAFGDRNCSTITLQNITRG

[2] = biological target: T1, α-dystroglycan (dystroglycan as named in the overlay assays; fragment not named at the place) (human); assay: dystroglycan blot overlay, 4 µg loaded (FIG. 7)
[3] = biological target: T1, α-dystroglycan (dystroglycan as named in the overlay assays; fragment not named at the place) (human); assay: dystroglycan blot overlay (FIG. 7)
[4] = biological target: T2, native α-sarcoglycan from detergent extracts of cultured mouse myotubes (printed 'native human', isolated from cultured mouse myotubes) (UniProt P82350); assay: myotube detergent extract incubated with recombinant human core biglycan, immunoprecipitation with antibodies to α-sarcoglycan, Western blot with antibodies to biglycan (FIG. 8D)
T2 sequence (looked up): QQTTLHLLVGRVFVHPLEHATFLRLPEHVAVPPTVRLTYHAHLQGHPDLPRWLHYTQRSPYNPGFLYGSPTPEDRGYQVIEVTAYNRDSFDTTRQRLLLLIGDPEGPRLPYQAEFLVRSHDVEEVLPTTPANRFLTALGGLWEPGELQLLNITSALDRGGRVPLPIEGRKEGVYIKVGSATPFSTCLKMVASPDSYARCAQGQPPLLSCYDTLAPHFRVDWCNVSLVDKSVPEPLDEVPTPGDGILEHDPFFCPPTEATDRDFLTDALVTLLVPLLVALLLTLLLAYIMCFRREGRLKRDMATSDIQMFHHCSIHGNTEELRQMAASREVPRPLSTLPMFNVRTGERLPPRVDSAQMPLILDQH

Molecule: Human biglycan produced in the vaccinia system (mixture of core biglycan and proteoglycan biglycan) (from UniProt P21810 38-368)
binding [1]: binds

binding [2]: binds
Molecule: decorin purified from bovine articular cartilage (Sigma) (from UniProt P21793 31-360)

binding [3]: binds
binding [2]: binds
B1: biglycan purified from bovine articular cartilage (Sigma) (protein, UniProt P21809 38-369, looked up)
chain: DEEASGAETTSGIPDLDSLPPTYSAMCPFGCHCHLRVVQCSDLGLKAVPKEISPDTTLLDLQNNDISELRKDDFKGLQHLYALVLVNNKISKIHEKAFSPLRKLQKLYISKNHLVEIPPNLPSSLVELRIHDNRIRKVPKGVFSGLRNMNCIEMGGNPLENSGFEPGAFDGLKLNYLRISEAKLTGIPKDLPETLNELHLDHNKIQAIELEDLLRYSKLYRLGLGHNQIRMIENGSLSFLPTLRELHLDNNKLSRVPAGLPDLKLLQVVYLHTNNITKVGVNDFCPVGFGVKRAYYNGISLFNNPVPYWEVQPATFRCVTDRLAIQFGNYKK
modifications: native glycosaminoglycan chains (not further described)

binding [4]: binds
B2: biglycan core (recombinant human biglycan, no side chains) (protein, not shown: small tags and cut ends)
chain: HHHHHHESLEDEEASGADTSGVLDPDSVTPTYSAMCPFGCHCHLRVVQCSDLGLKSVPKEISPDTTLLDLQNNDISELRKDDFKGLQHLYALVLVNNKISKIHEKAFSPLRKLQKLYISKNHLVEIPPNLPSSLVELRIHDNRIRKVPKGVFSGLRNMNCIEMGGNPLENSGFEPGAFDGLKLNYLRISEAKLTGIPKDLPETLNELHLDHNKIQAIELEDLLRYSKLYRLGLGHNQIRMIENGSLSFLPTLRELHLDNNKLARVPSGLPDLKLLQVVYLHSNNITKVGVNDFCPMGFGVKRAYYNGISLFNNPVPYWEVQPATFRCVTDRLAIQFGNYKK
